# Experimental data reported in the supplement of paper PMC8728848.
# This is one part of the list.
# B1: Sp8391B-bot-388-20-388 (Bacteroides ovatus) (protein)
# chain: GCQNNDENEQHYDNKLFISASNFTKEILFKAGDTNVETGLSVAIAKPEEHDIKVTMSPAPELLSTYKLAYYDETAVLLSEEHYSMPETSTTIKSGSIVSPELPIEFINTGELDIKTTYVLPVTIKSVEGIGVLQSAKTYYYVFRGASLINVVCNISRNRAYPDFKNDSKFNNLTENTMEILFKANSFPNTLNTLMGIESNYLLRIGDATIPNNQLQVATSVNNCTSADLQLESGKWYHVAVAFNKGNVKVYINGVEKLSGSTGKSSVSLGAKHTNEEDGSRCFWVGYSYKDDRYFDGVVSEVRIWNRALTAEEIQATNHFYTIEPESEGLIAYWKFDEGSGTVAKDYSVSGYDLTIEKEPKWESVSLPQ
# Tests used:
# Assay in all cases: glycan array binding signal (z-score within array); higher = stronger binding
# Details in all cases: glycan notation: IUPAC condensed, linker removed
# [1] = biological target: Gal(b1-4)GlcNAc(b1-3)Gal(b1-4)GlcNAc(b1-3)Gal(b1-4)GlcNAc(b1-3)Gal(b1-4)GlcNAc(b1-2)Man(a1-3)[Gal(b1-4)GlcNAc(b1-3)Gal(b1-4)GlcNAc(b1-3)Gal(b1-4)GlcNAc(b1-3)Gal(b1-4)GlcNAc(b1-2)Man(a1-6)]Man(b1-4)GlcNAc(b1-4)[Fuc(a1-6)]GlcNAc
# How it was run: (§1)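 Negative Z-scores can be read as non-binding. The Z-score is calculated within each array and then averaged across arrays of one protein sequence at different concentrations or buffers and across linkers. Arrays, 3228 in all, were curated from the Consortium for Functional Glycomics database and kept only where the protein sequence was available.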
# [2] = biological target: Gal(b1-4)GlcNAc(b1-3)Gal(b1-4)GlcNAc(b1-3)Gal(b1-4)GlcNAc(b1-3)Gal(b1-4)GlcNAc(b1-2)[Gal(b1-4)GlcNAc(b1-3)Gal(b1-4)GlcNAc(b1-3)Gal(b1-4)GlcNAc(b1-3)Gal(b1-4)GlcNAc(b1-6)]Man(a1-6)[Gal(b1-4)GlcNAc(b1-3)Gal(b1-4)GlcNAc(b1-3)Gal(b1-4)GlcNAc(b1-3)Gal(b1-4)GlcNAc(b1-2)Man(a1-3)]Man(b1-4)GlcNAc(b1-4)[Fuc(a1-6)]GlcNAc
# How it was run: as §1
# [3] = biological target: Gal(b1-4)GlcNAc(b1-3)Gal(b1-4)GlcNAc(b1-3)Gal(b1-4)GlcNAc(b1-3)Gal(b1-4)GlcNAc(b1-3)Gal(b1-4)GlcNAc(b1-2)Man(a1-3)[Gal(b1-4)GlcNAc(b1-3)Gal(b1-4)GlcNAc(b1-3)Gal(b1-4)GlcNAc(b1-3)Gal(b1-4)GlcNAc(b1-3)Gal(b1-4)GlcNAc(b1-2)Man(a1-6)]Man(b1-4)GlcNAc(b1-4)GlcNAc
# How it was run: as §1
# [4] = biological target: Gal(b1-4)GlcNAc(b1-3)Gal(b1-4)GlcNAc(b1-3)Gal(b1-4)GlcNAc(b1-3)Gal(b1-4)GlcNAc(b1-3)Gal(b1-4)GlcNAc(b1-2)Man(a1-3)[Gal(b1-4)GlcNAc(b1-3)Gal(b1-4)GlcNAc(b1-3)Gal(b1-4)GlcNAc(b1-3)Gal(b1-4)GlcNAc(b1-3)Gal(b1-4)GlcNAc(b1-2)Man(a1-6)]Man(b1-4)GlcNAc(b1-4)[Fuc(a1-6)]GlcNAc
# How it was run: as §1
# [5] = biological target: Gal(b1-4)GlcNAc(b1-3)Gal(b1-4)GlcNAc(b1-3)Gal(b1-4)GlcNAc(b1-3)Gal(b1-4)GlcNAc(b1-3)Gal(b1-4)GlcNAc(b1-2)[Gal(b1-4)GlcNAc(b1-3)Gal(b1-4)GlcNAc(b1-3)Gal(b1-4)GlcNAc(b1-3)Gal(b1-4)GlcNAc(b1-3)Gal(b1-4)GlcNAc(b1-6)]Man(a1-6)[Gal(b1-4)GlcNAc(b1-3)Gal(b1-4)GlcNAc(b1-3)Gal(b1-4)GlcNAc(b1-3)Gal(b1-4)GlcNAc(b1-3)Gal(b1-4)GlcNAc(b1-2)Man(a1-3)]Man(b1-4)GlcNAc(b1-4)[Fuc(a1-6)]GlcNAc
# How it was run: as §1
# [6] = biological target: Gal(b1-4)GlcNAc(b1-3)Gal(b1-4)GlcNAc(b1-3)Gal(b1-4)GlcNAc(b1-3)Gal(b1-4)GlcNAc(b1-3)Gal(b1-4)GlcNAc(b1-3)Gal(b1-4)GlcNAc(b1-2)Man(a1-3)[Gal(b1-4)GlcNAc(b1-3)Gal(b1-4)GlcNAc(b1-3)Gal(b1-4)GlcNAc(b1-3)Gal(b1-4)GlcNAc(b1-3)Gal(b1-4)GlcNAc(b1-3)Gal(b1-4)GlcNAc(b1-2)Man(a1-6)]Man(b1-4)GlcNAc(b1-4)GlcNAc
# How it was run: as §1
# [7] = biological target: Gal(b1-4)GlcNAc(b1-3)Gal(b1-4)GlcNAc(b1-3)GalNAc
# How it was run: as §1
# [8] = biological target: Gal(b1-4)GlcNAc(b1-3)Gal(b1-4)GlcNAc(b1-3)[Gal(b1-4)GlcNAc(b1-3)Gal(b1-4)GlcNAc(b1-6)]GalNAc
# How it was run: as §1
# [9] = biological target: Gal(b1-4)GlcNAc(b1-3)Gal(b1-4)GlcNAc(b1-6)[Gal(b1-3)]GalNAc
# How it was run: as §1
# [10] = biological target: Gal(b1-4)GlcNAc(b1-3)Gal(b1-4)[Fuc(a1-3)]GlcNAc(b1-3)Gal(b1-4)[Fuc(a1-3)]GlcNAc
# How it was run: as §1
# [11] = biological target: Gal(b1-4)GlcNAc(b1-3)GalNAc
# How it was run: as §1
# [12] = biological target: Gal(b1-4)GlcNAc(b1-3)[Fuc(a1-3)GlcNAc(b1-6)]Gal(b1-4)Glc
# How it was run: as §1
# [13] = biological target: Gal(b1-4)GlcNAc(b1-3)[Gal(b1-4)GlcNAc(b1-6)]Gal(b1-4)GlcNAc
# How it was run: as §1
# [14] = biological target: Gal(b1-4)GlcNAc(b1-3)[GlcNAc(b1-6)]Gal(b1-4)GlcNAc
# How it was run: as §1
# [15] = biological target: Gal(b1-4)GlcNAc(b1-6)Gal(b1-4)GlcNAc
# How it was run: as §1
# [16] = biological target: Gal(b1-4)GlcNAc(b1-6)GalNAc
# How it was run: as §1
# [17] = biological target: Gal(b1-4)GlcNAc(b1-6)[Gal(b1-3)]GalNAc
# How it was run: as §1
# [18] = biological target: Gal(b1-4)GlcNAc(b1-6)[Gal(b1-4)GlcNAc(b1-3)]GalNAc
# How it was run: as §1
# Gal(b1-4)GlcNAc6P = biological target: Gal(b1-4)GlcNAc6P
# How it was run: as §1
# Gal(b1-6)Gal = biological target: Gal(b1-6)Gal
# How it was run: as §1
# Gal3S(b1-3)GalNAc = biological target: Gal3S(b1-3)GalNAc
# How it was run: as §1
# Gal3S(b1-3)GlcNAc = biological target: Gal3S(b1-3)GlcNAc
# How it was run: as §1
# [19] = biological target: Gal3S(b1-3)[Fuc(a1-4)]GlcNAc
# How it was run: as §1
binder,measurement,setting,value
B1,glycan array binding signal (z-score),[1],0.085
same,glycan array binding signal (z-score),[2],-0.629
same,glycan array binding signal (z-score),[3],0.85
same,glycan array binding signal (z-score),[4],0.281
same,glycan array binding signal (z-score),[5],-0.112
same,glycan array binding signal (z-score),[6],1.31
same,glycan array binding signal (z-score),[7],-0.212
same,glycan array binding signal (z-score),[8],-0.269
same,glycan array binding signal (z-score),[9],0.674
same,glycan array binding signal (z-score),[10],-0.284
same,glycan array binding signal (z-score),[11],-0.431
same,glycan array binding signal (z-score),[12],0.415
same,glycan array binding signal (z-score),[13],0.572
same,glycan array binding signal (z-score),[14],0.193
same,glycan array binding signal (z-score),[15],0.486
same,glycan array binding signal (z-score),[16],0.056
same,glycan array binding signal (z-score),[17],-0.289
same,glycan array binding signal (z-score),[18],-0.718
same,glycan array binding signal (z-score),Gal(b1-4)GlcNAc6P,0.015
same,glycan array binding signal (z-score),Gal(b1-6)Gal,0.122
same,glycan array binding signal (z-score),Gal3S(b1-3)GalNAc,-0.809
same,glycan array binding signal (z-score),Gal3S(b1-3)GlcNAc,-0.053
same,glycan array binding signal (z-score),[19],-0.484

# Fetched one by one from the list above, 2 records:
binder,measurement,setting,value
B1,glycan array binding signal (z-score),[13],0.572
same,glycan array binding signal (z-score),[9],0.674
